The target of this assay is Recifercept (human). Description: SPR; Biacore T200; Recifercept amine-coupled on a CM5 chip (about 400 RU); hFGF injected in HBS-EP (0.01 M HEPES, 0.15 M NaCl, 3 mM EDTA, 0.05% polysorbate 20, pH 7.4) at 50 ul/min; single cycle kinetics, 5 concentrations from 0 to 16 nM; global 1:1 fit; triplicate; both purified. (In SPR one partner is held on a chip, and binding of the other changes the refractive index at the surface.)

Sequences of proteins named here, by UniProt entry; tags and fusion partners are left off. Residues count along the entry.
UniProt Q9HCT0, residues 23-170: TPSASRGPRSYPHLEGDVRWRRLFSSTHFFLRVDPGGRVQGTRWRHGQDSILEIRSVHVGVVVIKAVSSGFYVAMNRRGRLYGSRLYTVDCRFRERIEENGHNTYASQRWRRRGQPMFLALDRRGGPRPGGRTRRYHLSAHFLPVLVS
UniProt P11487, residues 18-239: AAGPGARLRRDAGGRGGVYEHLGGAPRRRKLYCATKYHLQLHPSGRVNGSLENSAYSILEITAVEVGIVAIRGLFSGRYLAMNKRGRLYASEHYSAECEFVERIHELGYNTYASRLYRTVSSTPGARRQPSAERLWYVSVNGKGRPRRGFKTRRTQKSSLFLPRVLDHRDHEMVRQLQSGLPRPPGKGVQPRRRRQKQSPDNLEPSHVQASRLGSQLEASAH
UniProt P21781, residues 32-194: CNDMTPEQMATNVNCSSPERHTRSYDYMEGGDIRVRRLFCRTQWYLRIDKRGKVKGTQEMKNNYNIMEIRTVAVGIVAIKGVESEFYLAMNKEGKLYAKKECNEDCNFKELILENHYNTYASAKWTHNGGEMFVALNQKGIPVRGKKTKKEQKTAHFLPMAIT
UniProt P12034, residues 21-268: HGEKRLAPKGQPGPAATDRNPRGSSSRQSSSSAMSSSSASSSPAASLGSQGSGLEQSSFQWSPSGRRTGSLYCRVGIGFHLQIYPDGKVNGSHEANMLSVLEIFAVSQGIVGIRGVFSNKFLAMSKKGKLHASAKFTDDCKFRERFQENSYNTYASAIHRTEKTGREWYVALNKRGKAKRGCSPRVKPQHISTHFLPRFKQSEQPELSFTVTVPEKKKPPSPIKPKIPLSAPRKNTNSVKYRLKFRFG
UniProt O15520, residues 38-208: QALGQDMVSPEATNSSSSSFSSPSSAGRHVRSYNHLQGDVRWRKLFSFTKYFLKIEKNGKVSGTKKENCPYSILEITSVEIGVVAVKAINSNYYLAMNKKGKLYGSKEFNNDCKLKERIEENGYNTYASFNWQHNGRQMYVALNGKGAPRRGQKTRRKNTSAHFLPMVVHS
UniProt P10767, residues 38-208: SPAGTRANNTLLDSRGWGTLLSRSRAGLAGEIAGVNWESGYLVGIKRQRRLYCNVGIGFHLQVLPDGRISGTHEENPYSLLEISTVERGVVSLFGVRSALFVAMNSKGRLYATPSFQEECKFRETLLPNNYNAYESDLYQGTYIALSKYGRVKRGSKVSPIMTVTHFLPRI
UniProt P08620, residues 31-206: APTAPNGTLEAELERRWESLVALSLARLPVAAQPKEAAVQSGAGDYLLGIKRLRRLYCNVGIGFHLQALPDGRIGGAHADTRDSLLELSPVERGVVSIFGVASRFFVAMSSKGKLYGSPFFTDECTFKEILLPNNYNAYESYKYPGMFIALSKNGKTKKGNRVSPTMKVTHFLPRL

Results are given in words; binding and its absence hold for the method and conditions named.

Results on seven substances are retold here after PMC7769458.

In the case of “human FGF22 (from UniProt Q9HCT0 23-170) (ligand)”, the binding entry was “no binding (tested: 16 nM)”. For “human FGF3 (from UniProt P11487 18-239) (ligand)”, the binding entry is “no binding (tested: 16 nM)”.

On to “human FGF7 (from UniProt P21781 32-194) (ligand)”, for which the binding result is given as “no binding (tested: 16 nM)”. In the case of “human FGF5 (from UniProt P12034 21-268) (ligand)”, the binding result was “no binding (tested: 16 nM)”.

Turning to “human FGF10 (from UniProt O15520 38-208) (ligand)”, the binding result is listed as “no binding (tested: 16 nM)”.

“human FGF6 (from UniProt P10767 38-208) (ligand)”: the binding result is recorded as “no binding (tested: 16 nM)”.

Turning to “human FGF4 (from UniProt P08620 31-206) (ligand)”, the binding result is listed as “no binding (tested: 16 nM)”.
